The assay deals with T1, Signaling lymphocyte activation molecule family 3 (SLAMF3) (mouse (endogenous in macrophages from mouse liver metastases)) (UniProt Q01965).
T1 sequence: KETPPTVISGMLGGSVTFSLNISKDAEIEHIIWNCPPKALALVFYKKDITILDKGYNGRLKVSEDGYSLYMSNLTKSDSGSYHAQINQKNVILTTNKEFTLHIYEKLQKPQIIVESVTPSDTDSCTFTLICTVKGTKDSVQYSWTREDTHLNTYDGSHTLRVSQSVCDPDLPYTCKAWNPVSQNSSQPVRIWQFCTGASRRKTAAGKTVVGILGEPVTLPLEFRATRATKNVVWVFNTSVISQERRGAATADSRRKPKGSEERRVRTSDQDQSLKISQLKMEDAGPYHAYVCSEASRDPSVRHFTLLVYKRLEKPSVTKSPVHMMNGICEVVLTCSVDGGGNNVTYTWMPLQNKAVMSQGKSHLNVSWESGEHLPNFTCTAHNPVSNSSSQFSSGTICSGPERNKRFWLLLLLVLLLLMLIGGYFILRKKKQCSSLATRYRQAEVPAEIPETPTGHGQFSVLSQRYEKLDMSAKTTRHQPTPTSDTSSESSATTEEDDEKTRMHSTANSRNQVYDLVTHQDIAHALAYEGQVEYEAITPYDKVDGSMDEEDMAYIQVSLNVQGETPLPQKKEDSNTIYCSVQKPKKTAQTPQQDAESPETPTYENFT
In words: co-IP; endogenous proteins in macrophages isolated from mouse liver metastases formed by MC38-P, MC38-LM3b-shScramble and MC38-LM3b-shSLAMF3 cells; procedure as in cited references.

Amino acid sequences for entries named in this document (tags omitted).
UniProt P29351: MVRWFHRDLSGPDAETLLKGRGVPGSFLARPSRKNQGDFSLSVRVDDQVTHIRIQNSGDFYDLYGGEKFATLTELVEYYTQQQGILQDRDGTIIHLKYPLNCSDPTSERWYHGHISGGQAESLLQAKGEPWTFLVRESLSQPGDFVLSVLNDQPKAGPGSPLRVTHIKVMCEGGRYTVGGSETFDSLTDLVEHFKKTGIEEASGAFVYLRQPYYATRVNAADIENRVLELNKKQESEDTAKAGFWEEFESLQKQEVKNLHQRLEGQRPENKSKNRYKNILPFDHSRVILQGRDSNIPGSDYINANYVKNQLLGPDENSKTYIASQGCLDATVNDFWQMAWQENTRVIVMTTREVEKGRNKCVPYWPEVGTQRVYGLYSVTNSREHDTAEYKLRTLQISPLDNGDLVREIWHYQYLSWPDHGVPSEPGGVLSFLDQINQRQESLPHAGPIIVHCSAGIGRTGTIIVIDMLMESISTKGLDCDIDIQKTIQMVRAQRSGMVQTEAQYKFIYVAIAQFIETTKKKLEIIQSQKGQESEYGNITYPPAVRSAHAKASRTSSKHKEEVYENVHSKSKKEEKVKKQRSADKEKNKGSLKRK

Here are results for one substance from publication PMC12407359.

No constants are given. Whether binding was seen depends on the method and setting. Binding seen in cells or lysates may run through a third protein. Some results given as binding are weak or reduced against the parent protein; the word gives no strength.

Turning to “SHP-1 (from UniProt P29351 1-595) (enzyme)”, the binding result is given as “binds”.
